PubChem BioAssay AID743454 | Peter MacCallum Cancer Centre, 2014
Assay: 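Search for knock-downs that restore vorinostat killing in resistant colon cancer cells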 (primary screen). Cell system: human HCT116-VR colon cancer cells, selected for vorinostat resistance. Reagents: siRNA pool against human genes, 40 nM siRNA pool. Duration: vorinostat for 24 h, read-out about 72 h after transfection. Treatment: vorinostat at 2.5 µM final. Read-out: 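Two measures, CellTiter-Fluor viability and luminescent caspase 3/7 activity, each as fold change against same-plate mock wells, mean of duplicates, then screen-wide robust z-score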. Reading the numbers: viability robust z-score: higher = more viable cells than screen typical; caspase robust z-score: higher = more caspase 3/7 activity than screen typical. Rule for the call: 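Hits are knock-downs in viability class RV1/RV2 or caspase class CA1/CA2, excluding ones that killed cells in the no-drug cell-count arm; hits then retested with single siRNAs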.
Here is an unselected part of about 18,000 reagents tested. 450 of all reagents (2.5%) count as active. 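Single biological run; no consistent viability z cut-off exists, so the class columns, not z-scores, define the calls.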

Which result is listed for LBR?
viability hit class: no change; caspase hit class: no change; viability robust z-score: 0.19; caspase robust z-score: 0.87; activity call: inactive

What is on record for MKX?
viability hit class: no change; caspase hit class: no change; viability robust z-score: 1.19; caspase robust z-score: 0.98; activity call: inactive

For ACP1, how do the results read?
viability hit class: no change; caspase hit class: no change; viability robust z-score: -1.8; caspase robust z-score: 0.46; activity call: inactive

Which result is listed for CIAO2B?
viability hit class: no change; caspase hit class: no change; viability robust z-score: -1.06; caspase robust z-score: -0.18; activity call: inactive

What did the screen give for TMEM43?
viability hit class: no change; caspase hit class: no change; viability robust z-score: -0.64; caspase robust z-score: 0.9; activity call: inactive

What did the screen give for UBE2M?
viability hit class: no change; caspase hit class: CA2 (caspase activation); viability robust z-score: -1.57; caspase robust z-score: 6.74; activity call: active

For RNF32, how do the results read?
viability hit class: no change; caspase hit class: no change; viability robust z-score: -0.52; caspase robust z-score: -0.46; activity call: inactive

For LILRA2, what does the deposit list?
viability hit class: no change; caspase hit class: no change; viability robust z-score: -0.26; caspase robust z-score: 0.47; activity call: inactive

With EPHA6, what was measured?
viability hit class: no change; caspase hit class: no change; viability robust z-score: -2.68; caspase robust z-score: -1; activity call: inactive

For WNT3, what does the deposit list?
viability hit class: no change; caspase hit class: no change; viability robust z-score: -0.26; caspase robust z-score: 0.62; activity call: inactive

What is on record for SIGLEC12?
viability hit class: no change; caspase hit class: no change; viability robust z-score: 1.02; caspase robust z-score: 0.34; activity call: inactive

Which result is listed for HCN4?
viability hit class: no change; caspase hit class: no change; viability robust z-score: -0.08; caspase robust z-score: -0.02; activity call: inactive

Sorted by “caspase robust z-score” (ascending): 3 of the entries above
EPHA6 → viability hit class = no change; caspase hit class = no change; viability robust z-score = -2.68; caspase robust z-score = -1; activity call = inactive
RNF32 → viability hit class = no change; caspase hit class = no change; viability robust z-score = -0.52; caspase robust z-score = -0.46; activity call = inactive
LILRA2 → viability hit class = no change; caspase hit class = no change; viability robust z-score = -0.26; caspase robust z-score = 0.47; activity call = inactive

Next records:
With CNIH2, how do the results read?
viability hit class: no change; caspase hit class: no change; viability robust z-score: 0.18; caspase robust z-score: 0.08; activity call: inactive

How did the screen score NXPE2?
viability hit class: no change; caspase hit class: no change; viability robust z-score: 1.52; caspase robust z-score: 0.57; activity call: inactive

How did the screen score GADD45B?
viability hit class: no change; caspase hit class: no change; viability robust z-score: 0; caspase robust z-score: 0.42; activity call: inactive

For WBP2, how do the results read?
viability hit class: no change; caspase hit class: no change; viability robust z-score: -0.21; caspase robust z-score: 0.93; activity call: inactive

For ZNF223, what was measured?
viability hit class: no change; caspase hit class: no change; viability robust z-score: -0.62; caspase robust z-score: 3.17; activity call: inactive

With SPDYE1, what does the deposit list?
viability hit class: no change; caspase hit class: no change; viability robust z-score: -0.32; caspase robust z-score: -0.22; activity call: inactive

For TWIST1, what does the deposit list?
viability hit class: no change; caspase hit class: no change; viability robust z-score: -1.17; caspase robust z-score: -1.06; activity call: inactive

What did the screen give for MISO1?
viability hit class: no change; caspase hit class: no change; viability robust z-score: 1.38; caspase robust z-score: 0.23; activity call: inactive

What is on record for SCNN1B?
viability hit class: no change; caspase hit class: no change; viability robust z-score: 0.75; caspase robust z-score: 1.12; activity call: inactive

For OR4C6, what was measured?
viability hit class: no change; caspase hit class: no change; viability robust z-score: -0.44; caspase robust z-score: 1.11; activity call: inactive

For ATCAY, what does the deposit list?
viability hit class: no change; caspase hit class: no change; viability robust z-score: 0.72; caspase robust z-score: 0.26; activity call: inactive

What is on record for SLC44A4?
viability hit class: no change; caspase hit class: no change; viability robust z-score: 0.38; caspase robust z-score: 2.4; activity call: inactive

What is on record for CGB3?
viability hit class: no change; caspase hit class: no change; viability robust z-score: 0.12; caspase robust z-score: -0.8; activity call: inactive

For KCNU1, what was measured?
viability hit class: no change; caspase hit class: no change; viability robust z-score: 1.03; caspase robust z-score: -0.32; activity call: inactive

With OFCC1, how do the results read?
viability hit class: no change; caspase hit class: no change; viability robust z-score: -0.52; caspase robust z-score: -0.02; activity call: inactive
